Results are given in words; binding and its absence hold for the method and conditions named. Binding seen in cells or lysates may run through a third protein. Some binding calls cover weakened binding; strength is not graded here.
Columns and labels:
[1] = target: LE-EG-VEGFR1, N-terminal FLAG (human) (UniProt Q8TCW9); experiment: co-sedimentation; E. coli membrane proteoliposomes treated with thrombin to remove the LE leader, incubated overnight at 4°C with EG-VEGF in PBS, extensively washed and pelleted by centrifugation; pellet analysed by SDS-PAGE and immuno-blot with anti-EG-VEGF antibody; only the binder purified
[2] = target: LE-EG-VEGFR1, C-terminal FLAG (human) (UniProt Q8TCW9); experiment: as above

The chains behind the UniProt entries cited, without tags or fusion partners.
UniProt Q8TCW9: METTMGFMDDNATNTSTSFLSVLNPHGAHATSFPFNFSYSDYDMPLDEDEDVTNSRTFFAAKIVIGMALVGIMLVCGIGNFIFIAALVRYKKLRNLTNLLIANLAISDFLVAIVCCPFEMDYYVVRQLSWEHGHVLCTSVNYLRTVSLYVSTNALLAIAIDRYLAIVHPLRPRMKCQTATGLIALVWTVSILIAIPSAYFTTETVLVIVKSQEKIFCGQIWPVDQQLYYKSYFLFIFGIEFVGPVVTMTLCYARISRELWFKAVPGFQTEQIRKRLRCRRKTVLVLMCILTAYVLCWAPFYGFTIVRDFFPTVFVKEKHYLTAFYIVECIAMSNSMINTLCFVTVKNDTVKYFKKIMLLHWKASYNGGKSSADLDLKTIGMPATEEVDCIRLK

- binding [1]: binds
- binding [2]: binds
B1: EG-VEGF (Prokineticin 1) (ligand, UniProt P58294 20-105)
chain: AVITGACERDVQCGAGTCCAISLWLRGLRMCTPLGREGEECHPGSHKVPFFRKRKHHTCPCLPNLLCSRFPDGRYRCSMDLKNINF

From PMC3338534
